Measurements published in the supplement of paper PMC10032668.
The other results are listed elsewhere or left out. Only hits are listed; about a third recur on repeated control peptides.

Sequences of proteins named here, by UniProt entry; tags and fusion partners are left off.
RANBP1, P43487, UniProt P43487, whole entry: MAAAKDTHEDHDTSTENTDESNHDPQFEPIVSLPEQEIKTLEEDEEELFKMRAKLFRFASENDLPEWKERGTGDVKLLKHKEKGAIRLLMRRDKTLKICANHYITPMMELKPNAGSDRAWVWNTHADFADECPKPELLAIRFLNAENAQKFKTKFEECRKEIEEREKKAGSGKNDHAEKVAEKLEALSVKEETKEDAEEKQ
CACNA1D, Q01668, UniProt Q01668, whole entry: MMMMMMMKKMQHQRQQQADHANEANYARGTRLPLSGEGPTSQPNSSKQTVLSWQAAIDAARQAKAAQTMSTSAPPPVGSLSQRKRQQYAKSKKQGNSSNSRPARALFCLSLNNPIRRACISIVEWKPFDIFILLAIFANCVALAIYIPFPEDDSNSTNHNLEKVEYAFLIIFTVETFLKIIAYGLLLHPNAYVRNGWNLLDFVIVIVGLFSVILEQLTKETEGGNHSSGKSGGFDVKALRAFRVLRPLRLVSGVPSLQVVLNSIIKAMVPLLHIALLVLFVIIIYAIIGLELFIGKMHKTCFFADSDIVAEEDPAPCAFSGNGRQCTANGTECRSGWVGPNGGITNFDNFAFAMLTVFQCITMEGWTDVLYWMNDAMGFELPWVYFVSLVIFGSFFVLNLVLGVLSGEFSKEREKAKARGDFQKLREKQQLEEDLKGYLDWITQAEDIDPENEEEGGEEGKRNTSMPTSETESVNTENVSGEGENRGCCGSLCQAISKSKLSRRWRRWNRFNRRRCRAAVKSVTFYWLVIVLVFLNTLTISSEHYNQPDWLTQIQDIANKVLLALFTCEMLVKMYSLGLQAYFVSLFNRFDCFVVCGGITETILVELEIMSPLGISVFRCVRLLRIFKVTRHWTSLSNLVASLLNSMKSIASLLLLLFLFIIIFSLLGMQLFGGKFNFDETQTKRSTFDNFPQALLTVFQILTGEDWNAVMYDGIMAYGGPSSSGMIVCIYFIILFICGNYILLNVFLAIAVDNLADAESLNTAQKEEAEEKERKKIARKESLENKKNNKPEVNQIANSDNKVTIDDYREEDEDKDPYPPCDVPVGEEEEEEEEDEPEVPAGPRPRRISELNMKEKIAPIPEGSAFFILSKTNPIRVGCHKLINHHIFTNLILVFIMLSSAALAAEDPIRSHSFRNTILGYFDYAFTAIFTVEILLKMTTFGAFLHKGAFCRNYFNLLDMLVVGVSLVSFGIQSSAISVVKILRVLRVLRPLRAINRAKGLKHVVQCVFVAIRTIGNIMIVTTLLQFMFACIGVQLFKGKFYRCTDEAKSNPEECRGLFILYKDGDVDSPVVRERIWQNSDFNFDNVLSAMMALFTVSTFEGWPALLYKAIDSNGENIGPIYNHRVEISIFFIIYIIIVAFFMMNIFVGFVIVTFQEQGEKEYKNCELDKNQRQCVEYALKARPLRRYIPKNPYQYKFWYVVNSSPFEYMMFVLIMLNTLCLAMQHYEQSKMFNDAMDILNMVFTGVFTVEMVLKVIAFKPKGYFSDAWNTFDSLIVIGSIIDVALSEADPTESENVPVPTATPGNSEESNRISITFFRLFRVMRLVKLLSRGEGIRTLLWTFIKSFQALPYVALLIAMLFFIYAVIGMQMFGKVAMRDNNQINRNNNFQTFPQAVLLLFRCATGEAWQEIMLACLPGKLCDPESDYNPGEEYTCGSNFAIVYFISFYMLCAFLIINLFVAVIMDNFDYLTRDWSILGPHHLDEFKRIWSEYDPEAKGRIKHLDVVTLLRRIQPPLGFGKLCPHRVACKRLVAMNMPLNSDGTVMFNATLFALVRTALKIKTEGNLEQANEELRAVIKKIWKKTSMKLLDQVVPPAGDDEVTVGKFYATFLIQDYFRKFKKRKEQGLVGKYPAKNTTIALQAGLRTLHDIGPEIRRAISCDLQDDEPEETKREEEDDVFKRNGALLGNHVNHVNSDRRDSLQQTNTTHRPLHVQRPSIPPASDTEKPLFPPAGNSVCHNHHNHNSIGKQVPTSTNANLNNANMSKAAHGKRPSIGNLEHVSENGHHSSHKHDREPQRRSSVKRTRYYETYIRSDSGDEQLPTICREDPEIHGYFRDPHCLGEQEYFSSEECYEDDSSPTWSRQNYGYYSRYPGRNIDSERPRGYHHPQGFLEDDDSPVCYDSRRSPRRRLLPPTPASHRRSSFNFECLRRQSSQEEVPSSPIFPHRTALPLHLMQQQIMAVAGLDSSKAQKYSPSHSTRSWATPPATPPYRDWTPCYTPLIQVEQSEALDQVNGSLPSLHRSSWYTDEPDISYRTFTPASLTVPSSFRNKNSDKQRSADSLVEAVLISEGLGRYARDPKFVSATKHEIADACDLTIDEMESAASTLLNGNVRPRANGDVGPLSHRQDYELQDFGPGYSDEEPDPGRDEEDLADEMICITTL
CNOT3, O75175, UniProt O75175, whole entry: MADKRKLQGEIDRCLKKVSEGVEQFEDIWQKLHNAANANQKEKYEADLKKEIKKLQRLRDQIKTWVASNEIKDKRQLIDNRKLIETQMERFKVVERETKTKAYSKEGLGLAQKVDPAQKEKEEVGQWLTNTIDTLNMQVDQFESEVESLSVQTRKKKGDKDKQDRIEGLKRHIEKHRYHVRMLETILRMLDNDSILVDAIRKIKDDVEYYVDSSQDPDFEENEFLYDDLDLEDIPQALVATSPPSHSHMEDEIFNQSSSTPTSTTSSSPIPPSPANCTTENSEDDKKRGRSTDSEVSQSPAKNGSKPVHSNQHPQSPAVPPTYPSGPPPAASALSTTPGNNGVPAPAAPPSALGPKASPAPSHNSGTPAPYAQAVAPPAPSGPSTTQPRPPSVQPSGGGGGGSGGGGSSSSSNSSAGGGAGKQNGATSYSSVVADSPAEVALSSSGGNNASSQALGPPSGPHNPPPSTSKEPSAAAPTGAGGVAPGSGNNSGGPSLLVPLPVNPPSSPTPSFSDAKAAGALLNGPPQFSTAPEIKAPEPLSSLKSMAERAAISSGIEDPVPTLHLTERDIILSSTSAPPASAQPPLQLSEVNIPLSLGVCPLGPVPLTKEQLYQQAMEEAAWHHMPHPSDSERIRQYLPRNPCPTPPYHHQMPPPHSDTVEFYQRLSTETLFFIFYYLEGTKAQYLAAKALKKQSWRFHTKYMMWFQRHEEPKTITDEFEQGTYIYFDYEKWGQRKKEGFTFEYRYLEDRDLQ

Tests used:
Assay in all cases: PRISMA enrichment of interactor (LFQ) in peptide spot vs all other peptide spots (log2 fold change); higher = stronger / more specific binding of the interactor to the peptide
BAG2, O95816 = molecular target: BAG2, O95816
Description: (§1)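 PRISMA: 15-aa overlapping tiles (offset 8 aa) of 60 microproteins, plus SOS1/GLUT1 control peptides, were spot-synthesized on cellulose membranes in triplicate. Membranes were incubated with benzonase-treated HEK293T lysate, and bound proteins were identified by LC-MS/MS with LFQ. Enrichment is the log2 fold change of each protein in one spot versus all other spots. Only interactors passing the significance cutoff are listed.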

CDC73, Q6P1J9 = molecular target: CDC73, Q6P1J9
Description: as §1

CLCC1, Q96S66 = molecular target: CLCC1, Q96S66
Description: as §1

DNAJB11, Q9UBS4 = molecular target: DNAJB11, Q9UBS4
Description: as §1

FANCI, Q9NVI1 = molecular target: FANCI, Q9NVI1
Description: as §1

HMGA1, P17096 = molecular target: HMGA1, P17096
Description: as §1

KHSRP, Q92945 = molecular target: KHSRP, Q92945
Description: as §1

MRPS9, P82933 = molecular target: MRPS9, P82933
Description: as §1

MTDH, Q86UE4 = molecular target: MTDH, Q86UE4
Description: as §1

NUP85, Q9BW27 = molecular target: NUP85, Q9BW27
Description: as §1

PSMC2, P35998 = molecular target: PSMC2, P35998
Description: as §1

RCN2, Q14257 = molecular target: RCN2, Q14257
Description: as §1

RPS17, P08708 = molecular target: RPS17, P08708
Description: as §1

SEMG2, Q02383 = molecular target: SEMG2, Q02383
Description: as §1

SMC1A, Q14683 = molecular target: SMC1A, Q14683
Description: as §1

SREK1, Q8WXA9 = molecular target: SREK1, Q8WXA9
Description: as §1

SRI, P30626 = molecular target: SRI, P30626
Description: as §1

TRIM26, Q12899 = molecular target: TRIM26, Q12899
Description: as §1

TXNDC12, O95881 = molecular target: TXNDC12, O95881
Description: as §1

URB2, Q14146 = molecular target: URB2, Q14146
Description: as §1

WDCP, Q9H6R7 = molecular target: WDCP, Q9H6R7
Description: as §1

XRCC5, P13010 = molecular target: XRCC5, P13010
Description: as §1

BAIAP2, Q9UQB8 = molecular target: BAIAP2, Q9UQB8
Description: as §1

DDX47, Q9H0S4 = molecular target: DDX47, Q9H0S4
Description: as §1

IGHMBP2, P38935 = molecular target: IGHMBP2, P38935
Description: as §1

ITIH2, P19823 = molecular target: ITIH2, P19823
Description: as §1

KRT6B, P04259 = molecular target: KRT6B, P04259
Description: as §1

LRRFIP1, Q32MZ4 = molecular target: LRRFIP1, Q32MZ4
Description: as §1

MAP7, Q14244 = molecular target: MAP7, Q14244
Description: as §1

MRPL1, Q9BYD6 = molecular target: MRPL1, Q9BYD6
Description: as §1

RANBP1, P43487 = molecular target: RANBP1, P43487
Description: as §1

GTF3C5, Q9Y5Q8 = molecular target: GTF3C5, Q9Y5Q8
Description: as §1

LMF2, Q9BU23 = molecular target: LMF2, Q9BU23
Description: as §1

PDCL3, Q9H2J4 = molecular target: PDCL3, Q9H2J4
Description: as §1

RNPS1, Q15287 = molecular target: RNPS1, Q15287
Description: as §1

BANF1, O75531 = molecular target: BANF1, O75531
Description: as §1

RPL10, P27635 = molecular target: RPL10, P27635
Description: as §1

SERF2, P84101 = molecular target: SERF2, P84101
Description: as §1

BOD1, Q96IK1 = molecular target: BOD1, Q96IK1
Description: as §1

CACNA1D, Q01668 = molecular target: CACNA1D, Q01668
Description: as §1

CNOT3, O75175 = molecular target: CNOT3, O75175
Description: as §1

DRG1, Q9Y295 = molecular target: DRG1, Q9Y295
Description: as §1

FADS1, O60427 = molecular target: FADS1, O60427
Description: as §1

MACF1 = molecular target: MACF1
Description: as §1

PDK1, Q15118 = molecular target: PDK1, Q15118
Description: as §1

PFKM, P08237 = molecular target: PFKM, P08237
Description: as §1

SLC35E1, Q96K37 = molecular target: SLC35E1, Q96K37
Description: as §1

TRAM1, Q15629 = molecular target: TRAM1, Q15629
Description: as §1

**Q.** Which results are given for DSYSLDVHGGRRTAA [PVT1]?
**A.** PRISMA enrichment of interactor (log2) (BAG2, O95816): 6; PRISMA enrichment of interactor (log2) (CDC73, Q6P1J9): 5.79; PRISMA enrichment of interactor (log2) (CLCC1, Q96S66): 4.17; PRISMA enrichment of interactor (log2) (DNAJB11, Q9UBS4): 5.33; PRISMA enrichment of interactor (log2) (FANCI, Q9NVI1): 6.27; PRISMA enrichment of interactor (log2) (HMGA1, P17096): 7.09; PRISMA enrichment of interactor (log2) (KHSRP, Q92945): 5.87; PRISMA enrichment of interactor (log2) (MRPS9, P82933): 5.87; PRISMA enrichment of interactor (log2) (MTDH, Q86UE4): 5.84; PRISMA enrichment of interactor (log2) (NUP85, Q9BW27): 8.01; PRISMA enrichment of interactor (log2) (PSMC2, P35998): 6.89; PRISMA enrichment of interactor (log2) (RCN2, Q14257): 6.64; PRISMA enrichment of interactor (log2) (RPS17, P08708): 5.5; PRISMA enrichment of interactor (log2) (SEMG2, Q02383): 6.57; PRISMA enrichment of interactor (log2) (SMC1A, Q14683): 5.81; PRISMA enrichment of interactor (log2) (SREK1, Q8WXA9): 5.15; PRISMA enrichment of interactor (log2) (SRI, P30626): 5.28; PRISMA enrichment of interactor (log2) (TRIM26, Q12899): 4.9; PRISMA enrichment of interactor (log2) (TXNDC12, O95881): 5.55; PRISMA enrichment of interactor (log2) (URB2, Q14146): 6.86; PRISMA enrichment of interactor (log2) (WDCP, Q9H6R7): 5.75; PRISMA enrichment of interactor (log2) (XRCC5, P13010): 5.41

**Q.** How did the “PRISMA enrichment of interactor (log2)” value (BAIAP2, Q9UQB8) turn out when PRCRGGPGAAAVWAR [RAB12] was run?
**A.** 5.09

**Q.** And the “PRISMA enrichment of interactor (log2)” value (DDX47, Q9H0S4)?
**A.** 5.9

**Q.** What about the “PRISMA enrichment of interactor (log2)” value (HMGA1, P17096) of the same binder?
**A.** 4.37

**Q.** And the “PRISMA enrichment of interactor (log2)” value (IGHMBP2, P38935)?
**A.** 8.84

**Q.** What about the “PRISMA enrichment of interactor (log2)” value (ITIH2, P19823) of the same binder?
**A.** 4.3

**Q.** And the “PRISMA enrichment of interactor (log2)” value (KRT6B, P04259)?
**A.** 5.16

**Q.** What about the “PRISMA enrichment of interactor (log2)” value (LRRFIP1, Q32MZ4) of the same binder?
**A.** 8.08

**Q.** What about the “PRISMA enrichment of interactor (log2)” value (MAP7, Q14244) of the same binder?
**A.** 4.07

**Q.** What about the “PRISMA enrichment of interactor (log2)” value (MRPL1, Q9BYD6) of the same binder?
**A.** 4.8

**Q.** And the “PRISMA enrichment of interactor (log2)” value (RANBP1, P43487)?
**A.** 4.79

**Q.** With MFLSAVFFAKSKSKN [MRPL33] as the binder, how does the “PRISMA enrichment of interactor (log2)” value (BAIAP2, Q9UQB8) read?
**A.** 5.77

**Q.** And the “PRISMA enrichment of interactor (log2)” value (GTF3C5, Q9Y5Q8)?
**A.** 4.34

**Q.** And the “PRISMA enrichment of interactor (log2)” value (LMF2, Q9BU23)?
**A.** 4.89

**Q.** What about the “PRISMA enrichment of interactor (log2)” value (PDCL3, Q9H2J4) of the same binder?
**A.** 8.5

**Q.** And the “PRISMA enrichment of interactor (log2)” value (RNPS1, Q15287)?
**A.** 6.37

**Q.** With DSEDKEDATGNVEMK [CRNDE] as the binder, how does the “PRISMA enrichment of interactor (log2)” value (BANF1, O75531) read?
**A.** 6.31

**Q.** And the “PRISMA enrichment of interactor (log2)” value (RPL10, P27635)?
**A.** 4.63

**Q.** What about the “PRISMA enrichment of interactor (log2)” value (SERF2, P84101) of the same binder?
**A.** 8.06

**Q.** Which results are given for PQDHSAPANSMQLTL [DANCR]?
**A.** PRISMA enrichment of interactor (log2) (BANF1, O75531): 5.32; PRISMA enrichment of interactor (log2) (BOD1, Q96IK1): 4.75; PRISMA enrichment of interactor (log2) (CACNA1D, Q01668): 9.92; PRISMA enrichment of interactor (log2) (CNOT3, O75175): 4.87; PRISMA enrichment of interactor (log2) (DRG1, Q9Y295): 4.33; PRISMA enrichment of interactor (log2) (FADS1, O60427): 4.24; PRISMA enrichment of interactor (log2) (MACF1): 10.2; PRISMA enrichment of interactor (log2) (PDK1, Q15118): 7.06; PRISMA enrichment of interactor (log2) (PFKM, P08237): 4.65; PRISMA enrichment of interactor (log2) (SLC35E1, Q96K37): 3.65; PRISMA enrichment of interactor (log2) (TRAM1, Q15629): 5.28
